For some of these results: Some peptides are written in HELM: one residue between dots, names in brackets for other building blocks, links after the first $.

Data set [1] can be described thus: peptide made by a vendor (Fmoc solid-phase peptide synthesis; Fmoc-Linker-Rink amide resin; HBTU or DIC, HOBT added). Conditions: whole synthesis, scale 0.15 mmole.
The nature of data set [2]: peptide made by a vendor (Fmoc solid-phase peptide synthesis; Rink Amide MBHA resin; Fmoc-Linker-Rink amide resin; HBTU or DIC, HOBT added). Conditions: whole synthesis, scale of the general procedure 0.4 mm; for final HPLC purity / final purity (method not given): analytical HPLC.
A short description of data set [3]: peptide made by a vendor (Fmoc solid-phase peptide synthesis; Fmoc Rink Amide MBHA resin; HBTU or DIC, HOBT added). The settings on record: whole synthesis.

For the substance Ac-IRLQISNPDLKDLMVQWFKDGGPSSGAPPPS-NH2, in data set [1], the isolated yield is on record as 20%. Besides, the “final HPLC purity” value in data set [2] is reported as more than 95%.

Ac-IRLQISNPYLKFIPLKRAIWLIK-NH2 gave an isolated mass in data set [3] of 125 mg. In data set [2], the “final purity (method not given)” value came to 96.9% and the isolated yield turned out to be 10.2%.

For Ac-MIILIISFPKHKDWKVILVK-NH2, the isolated mass in data set [3] is 118 mg. In data set [2], the “final purity (method not given)” value is reported as 97.4% and the isolated yield was 4.8%.

Regarding Ac-PFPPLPIGEEAPKDDMVRFFKDLHQYLNVV-NH2, the isolated yield in data set [1] came out at 20%. Also, in data set [2], the “final HPLC purity” value is on record as more than 95%.

As for “PEPTIDE1{[ac].M.A.N.L.G.Y.W.L.A.L.L.F.V.T.M.W.T.D.V.G.L.F.K.K.R.P.K.P.[am]}$$$$V2.0”, the isolated mass in data set [3] is 116 mg. Moreover, in data set [2], the “final purity (method not given)” value came to 96.4% and the isolated yield amounted to 7.0%.

Substance “PEPTIDE1{[ac].M.A.N.L.G.Y.W.L.L.A.L.F.V.T.Y.W.T.D.L.G.L.V.K.K.R.P.K.P.[am]}$$$$V2.0” showed an isolated mass in data set [3] of 210 mg. Also, in data set [2], the “final purity (method not given)” value was “>:97.7%” and the isolated yield is on record as 14.7%.

Regarding “PEPTIDE1{[ac].M.A.N.L.G.Y.W.L.L.L.L.F.V.T.M.W.T.D.V.G.L.A.K.K.R.P.K.P.[am]}$$$$V2.0”, in data set [3], the isolated mass worked out at 145 mg. In data set [2], the “final purity (method not given)” value was determined as 95.4% and the isolated yield is reported as 9.4%.

“PEPTIDE1{[ac].M.A.N.L.G.Y.W.L.Y.A.L.F.L.T.M.V.T.D.V.G.L.F.K.K.R.P.K.P.[am]}$$$$V2.0” yielded an isolated mass in data set [3] of 189 mg. In data set [2], the “final purity (method not given)” value was more than 96% and the isolated yield amounted to 5.8%.
